No constants are given. Whether binding was seen depends on the method and setting. Binding seen in cells or lysates may run through a third protein. Tags and fused reporters may be left off the sequences shown.

Amino acid sequences for entries named in this document (tags omitted). A change or cut given only in a name is not applied to a line headed by its entry.
UniProt Q8NBS9: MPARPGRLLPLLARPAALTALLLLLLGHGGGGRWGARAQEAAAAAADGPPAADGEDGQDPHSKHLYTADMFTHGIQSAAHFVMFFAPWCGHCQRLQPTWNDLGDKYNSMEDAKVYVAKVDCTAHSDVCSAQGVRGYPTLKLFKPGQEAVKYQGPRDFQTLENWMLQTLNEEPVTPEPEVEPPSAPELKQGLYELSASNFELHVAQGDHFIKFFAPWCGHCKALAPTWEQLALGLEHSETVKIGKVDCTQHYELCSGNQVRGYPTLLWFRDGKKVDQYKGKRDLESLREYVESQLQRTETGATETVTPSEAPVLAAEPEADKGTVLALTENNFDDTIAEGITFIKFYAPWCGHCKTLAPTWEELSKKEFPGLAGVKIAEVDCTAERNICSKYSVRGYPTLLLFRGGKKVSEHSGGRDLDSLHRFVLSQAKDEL

This assay addresses T1, human TGFBR1-Myc-Flag-tagged (human) (UniProt P36897).
T1 sequence: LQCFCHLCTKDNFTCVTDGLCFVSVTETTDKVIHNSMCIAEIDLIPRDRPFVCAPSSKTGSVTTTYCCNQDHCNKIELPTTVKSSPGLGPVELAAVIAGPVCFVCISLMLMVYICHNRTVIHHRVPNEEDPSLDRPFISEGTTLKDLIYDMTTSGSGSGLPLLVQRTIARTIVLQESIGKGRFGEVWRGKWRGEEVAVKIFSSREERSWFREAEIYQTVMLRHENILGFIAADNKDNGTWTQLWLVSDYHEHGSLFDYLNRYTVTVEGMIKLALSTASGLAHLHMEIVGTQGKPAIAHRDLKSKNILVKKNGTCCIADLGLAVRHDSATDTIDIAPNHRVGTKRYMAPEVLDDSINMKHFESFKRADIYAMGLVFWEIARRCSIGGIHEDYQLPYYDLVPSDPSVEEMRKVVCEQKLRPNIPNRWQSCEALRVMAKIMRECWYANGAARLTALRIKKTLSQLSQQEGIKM
The assay can be described thus: co-IP; lysates of NIH-3T3 fibroblasts transfected with mRNAs for 4 h; IP with anti-Flag or mouse IgG isotype control on protein G magnetic beads, and IP of WT or mutant TXNDC5 (TXNDC5 or HA); immunoblot.

Regarding “HA-tagged mutant TXNDC5-AAA (from UniProt Q8NBS9)”, the binding entry is on record as “no binding”.

These data come from paper PMC7449970.
